Experimental findings from publication PMC12646323 are described below.

No constants are given. Whether binding was seen depends on the method and setting. For part of these data: In cells and extracts the contact can be indirect. Some binding calls cover weakened binding; strength is not graded here. Tags and fused reporters may be left off the sequences shown.

In experiment [1] the target is T1, HA-Mak16 (wild type, yeast) (yeast) (UniProt P10962).
T1 sequence: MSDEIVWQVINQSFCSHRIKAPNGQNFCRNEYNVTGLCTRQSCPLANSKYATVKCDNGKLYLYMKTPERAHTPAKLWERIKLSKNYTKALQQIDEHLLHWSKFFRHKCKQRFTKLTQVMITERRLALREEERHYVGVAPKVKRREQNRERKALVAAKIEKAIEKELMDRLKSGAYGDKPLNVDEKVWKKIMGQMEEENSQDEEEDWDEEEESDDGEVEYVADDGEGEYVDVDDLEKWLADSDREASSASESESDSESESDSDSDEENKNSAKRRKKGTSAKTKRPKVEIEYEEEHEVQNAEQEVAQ
Put plainly: co-IP; reciprocal immunoprecipitation with HA or Myc beads from extracts of Gal-MAK16/Gal-RPF1 yeast grown 40 h on glucose (chromosomal Mak16 and Rpf1 depleted), western blot; also after treatment of the cells with DTT, paraquat, H2O2 or menadione. On the technique in general: A western blot detects proteins with antibodies after separation by electrophoresis.

Experiment [2] has as its target T2, His-Mak16 (yeast, recombinant) (yeast) (UniProt P10962).
T2 sequence: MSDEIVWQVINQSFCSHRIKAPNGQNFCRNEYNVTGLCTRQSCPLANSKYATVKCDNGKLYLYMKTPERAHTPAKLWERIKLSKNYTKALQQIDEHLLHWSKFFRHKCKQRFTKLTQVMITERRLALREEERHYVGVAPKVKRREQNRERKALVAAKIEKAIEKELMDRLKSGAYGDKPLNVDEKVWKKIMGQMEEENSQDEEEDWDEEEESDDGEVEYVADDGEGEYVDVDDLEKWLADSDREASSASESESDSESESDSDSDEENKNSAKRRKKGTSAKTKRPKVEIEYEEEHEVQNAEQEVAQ
The experiment in a line: co-purification after co-expression; N-terminally His6-tagged yeast Mak16 coexpressed with Rpf1 or Rpf1-Δ58 in E. coli, affinity purified; SDS-PAGE (Coomassie) and western blot.

B1: Myc-Rpf1 (yeast) (protein, UniProt P38805 1-295)
chain: MALGNEINITNKLKRQEIFADIKHEKNKERHTMRRKRAKEERENPELREQRLKENVTQTIENTRVYDETINKEVEGDEDDLMRYFNSNSNEPPKIFLTTNVNAKKSAYEFANILIEILPNVTFVKRKFGYKLKEISDICIKRNFTDIVIINEDKKKVTGLTFIHLPEGPTFYFKLSSFVEVKKIVGHGRPTSHIPELILNNFQTRLGQTVGRLFQSILPQNPDIEGRQVITLHNQRDYIFFRRHRYVFKDNERVGLQELGPQFTLKLKRLQRGIKEETEWEHKPEMDKEKKKFYL
For B1, the binding result in experiment [1] is “binds”.

B2: Rpf1 (yeast, recombinant, coexpressed with His-Mak16) (protein, UniProt P38805 1-295)
chain: MALGNEINITNKLKRQEIFADIKHEKNKERHTMRRKRAKEERENPELREQRLKENVTQTIENTRVYDETINKEVEGDEDDLMRYFNSNSNEPPKIFLTTNVNAKKSAYEFANILIEILPNVTFVKRKFGYKLKEISDICIKRNFTDIVIINEDKKKVTGLTFIHLPEGPTFYFKLSSFVEVKKIVGHGRPTSHIPELILNNFQTRLGQTVGRLFQSILPQNPDIEGRQVITLHNQRDYIFFRRHRYVFKDNERVGLQELGPQFTLKLKRLQRGIKEETEWEHKPEMDKEKKKFYL
For the molecule B2, the binding result in experiment [2] was “binds”.

B3: Rpf1-Δ58 (yeast, recombinant, coexpressed with His-Mak16) (domain or fragment, UniProt P38805 59-295)
chain: TIENTRVYDETINKEVEGDEDDLMRYFNSNSNEPPKIFLTTNVNAKKSAYEFANILIEILPNVTFVKRKFGYKLKEISDICIKRNFTDIVIINEDKKKVTGLTFIHLPEGPTFYFKLSSFVEVKKIVGHGRPTSHIPELILNNFQTRLGQTVGRLFQSILPQNPDIEGRQVITLHNQRDYIFFRRHRYVFKDNERVGLQELGPQFTLKLKRLQRGIKEETEWEHKPEMDKEKKKFYL
Take B3: the binding result in experiment [2] is listed as “binds”.
